Source: patent EP4644419A1
Changes are numbered by the printed parent chain. No constants are given. Whether binding was seen depends on the method and setting. Binding can be weak; no strength is given.

The chains behind the UniProt entries cited, without tags or fusion partners. Where a name states a change or a piece, a line headed by the entry shows the natural chain unless it says otherwise.
UniProt Q6DKI7: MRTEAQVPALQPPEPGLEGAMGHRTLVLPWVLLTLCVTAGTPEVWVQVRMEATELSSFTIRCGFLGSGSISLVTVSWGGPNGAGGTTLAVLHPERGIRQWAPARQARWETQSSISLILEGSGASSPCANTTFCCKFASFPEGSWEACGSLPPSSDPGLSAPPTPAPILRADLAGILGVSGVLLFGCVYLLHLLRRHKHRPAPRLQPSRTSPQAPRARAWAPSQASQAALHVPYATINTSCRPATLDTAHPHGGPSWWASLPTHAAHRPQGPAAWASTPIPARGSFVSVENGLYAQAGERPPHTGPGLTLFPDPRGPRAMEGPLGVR

B1: C116 (antibody, human IgG1, kappa, V domains shown)
VH: EVKLVESGGGLVQPGGSLKLSCAVSGFTFSSYTMSWVRQTPEKRLELVAKISNSGGSTNYPDTVKGRFTLSRDNVKNTLYLQMSSLKSEDTAIYYCTRYSWDVYAMDYWGQGTSVTVSS
VL: DIQMTQSPASLSASVGETVIITCRASENIYSYLAWYQQKQGKSPHLLVYNAETLVEGVPSRFSGSGSATQFSLKINSLQPEDFGTYYCQHHYGDPTFGGGTKLEIKR
B2: C117 (antibody, human IgG1, kappa, V domains shown)
VH: QVQLQQSGAELARPGASVKMSCKASGYTFTDYWMQWVKQRPGQGLEWIGAIFPGNGETRDTQKFKGRATLTADRSSSTAYIQLSSLTSEDSAVYYCATFNNYLDYWGQGTTLTVAS
VL: QIVLTQSPAIMSASPGEKVTMTCSASSSVSYMHWYQQKSGASPKRWIYDTSKLTSGVPARFSGSGSGTSYSLTISNMEAEDAATYYCQQWISNPYTFGGGTKLEIKR
B3: C119 (antibody, human IgG1, kappa, V domains shown)
VH: EVKLVESGGGLVQPGGSLKLSCVASGFTFNTYIMSWVRQTPEKRLELVADISNSGGNTYYSDTVKGRFTISRDNAKNTLYLQMSSLKSEDTAMYYCARPDNWDPFVYWGQGTLVTVSA
VL: DIQMTQSSSSFSVSLGDRVTITCKASEDIYARLAWYQQKPGNAPRLLISGATSLETGVPSRFSGSGSGKNYTLSITSLQTEDVGTYYCQQHWSTPWTFGGGTNLEIKR
B4: C120 (antibody, human IgG1, kappa, V domains shown)
VH: EVQLQQSGPEVVKPGASVKISCKASGNTLTDYFINWVKQSHGKNLEWIGDINPDNGAGNYNQKFKGKATLTVDKSSGTAFMGLRSLTSEDSAVYYCATLYFDYWGQGTTLTVSS
VL: DIVMTQSPSSLSVSTGEKVTMSCRSSQSLLNSGNQKNYLAWYQQKPGQPPKLLIYGASTRESGVPDRFTGSGSGTDFTLTISSVQAEDLAIYYCQNAHTSPYTFGGGTRLEIKR
B5: C121 (antibody, human IgG1, kappa, V domains shown)
VH: B4 VH with L29F, N44S, A57G, G58T, T109S
VL: B4 VL with T15A, R24K, I91V, T99S
B6: C122 (antibody, human IgG1, kappa, V domains shown)
VH: B4 VH with L29F, S40R, N44S, I51V, A57G, G58T, Y100F, Y103S
VL: B4 VL with S12N, T15A, R24K, I91L, T99S, R109K
B7: C123 (antibody, human IgG1, kappa, V domains shown)
VH: EVQLVESGGGLVKPGGSLKLSCAASGFTFSNFAMSWVRQTPAMRLESVATIVNGGINTYYPDTVKGRFTVSRDNAKNTLYLQMSSLRSEDTAIYYCARHDDFLYYAMDYWGQGTSVTVSS
VL: QIVLTQSPAIMSASPGEKVTMTCSASSSVSYMFWYQQKPGSSPRLLIYDTSNLASGVPVRFSGSGSGTSYSLTISRLEAEDAATYYCQQWTSYPLTFGAGTKLDLKR
B8: C124 (antibody, human IgG1, kappa, V domains shown)
VH: B7 VH with N31S, M43K, V52N, I93M
VL: B7 VL with F33Y, L77M, D104E
B9: C125 (antibody, human IgG1, kappa, V domains shown)
VH: EVKLVESGGGLVQPGGSLKLSCAASGFTFSSYTMSWVRQTPEKRLELVAELSNSGGSFHYPDNVKGRFTISRDNAKNTLYLQMSSLKSEDTAMYYCARHNWDVYAMDYWGQGTSVTVSS
VL: DIQMSQSPASLSASVGETVTITCRASENVNSYLAWYQQKQGRSPQFLVYNAQTLAEGVPSRFSGGGSGTQFSLKINSLQPEDFGSYYCQHHYGNPTFGGGTKLEIKR
B10: C136 (antibody, human IgG1, kappa, V domains shown)
VH: DVQLVESGGGLVKPGGSLKLSCAASGFSFSENYMYWVRQTPEKRLEWVATISDGASYTYYPDNVKGRFTISRDTAKNNLYLQMSHLKSEDTAMYYCTRDELIAPFAYWGQGTLVTVSA
VL: DIVMTQSHKFMSTSVGDRVSITCKASQDVGTAVAWFQQKPGQSPKLLIYWASTRHTGVPDRFTGSGSGTDFTLTISNVQSEDLADYFCQQYNSYPWTFGGGTKLEIKR
B11: C138 (antibody, human IgG1, kappa, V domains shown)
VH: EVQLVESGGGLVKPGGSLKLSCAASGFTFSSYAMSWVRQTPAKRLEWVATITSGDIRTYYPDTVKGRFTISRDNAKNTLYLQMRSLRSEDTAMYYCVGHDDFHFYAMDYWGQGTSVTVSS
VL: B7 VL with M32L, F33Y, I74L, L77M, T91S, D104E
B12: C143 (antibody, human IgG1, kappa, V domains shown)
VH: B7 VH
VL: B7 VL with S30N
B13: C145 (antibody, human IgG1, kappa, V domains shown)
VH: EVQLQQSGPEVVKPGASVRISCKASGNTFTDFFINWVKQSHGKSLEWIGDVNPDSNGANYNQKFKGKATLTVDKSSGTAFMGLRSLTSEDSAVYYCATLFFDNWGQGTTLTVSS
VL: B4 VL with S12N, T15A, R24K, T78I, I91L, T99S, R109K
B14: C146 (antibody, human IgG1, kappa, V domains shown)
VH: EVQLQQSGPELVKPGSSVKISCEASGYTFADYNVDWVKQSHGKSLEWIGAINPNDGGTSYNQKFEGKATLTVDKSSTTVYMELRSLTSEDSAVYYCARWVNNDWYFDVWGTGTTVTVSS
VL: DIVMTQSQKFMSTSVGDRVSITCKASQNVRSAVDWYQQKPGQSPKTLIHSASSRHTGVPDRFTGSGSGTDFTLTISNIQSEDLADYFCLQHWNYPYTFGGGTKLEVKR
B15: C152 (antibody, human IgG1, kappa, V domains shown)
VH: QVQLQQSGTILARPGASVKMSCRASDYTFTDYWIQWIKQRPGQGLEWIGAIFPENGDTRYTQKFKGRATLTADKSSSTAYMQVNSLTSEDSAVYYCATFINYVDYWGQGTTLTVSS
VL: B2 VL with T5I, S30N, Y31N, M32I, A41T, S51T, N76S, I91N, S92I
B16: C1 (antibody, human IgG1, kappa, V domains shown)
VH: QVHLQQSGPELVKPGASLKISCKASGYTFTDYYLNWVKQRPGQGLEWIGWIFPGSESTFYNEKFKGKATLTVDKSSSTAYMLLNSLTSEDSAVYFCTRDGGLRGPFDYWGQGTTLTVSS
VL: DIQLTQSPSSLSASLGGKVTITCKASQDINKYIAWCQHKPGKGPRLLIHYTSTLHPGIPSRFSGSGSGRDYSFSISNLEPEDSATYYCLQYDYLLTFGGGTKLEIKR
B17: C3 (antibody, human IgG1, kappa, V domains shown)
VH: QVQLQQSGPELVKPGASVKISCRSSGYTFTDYYINWVKQRPGQGLEWIGWIFPGSDYTYYNEKFKGKATLTVDKSSTTAYMLLSSLTSEDSAVYFCARDGGLRGPFDYWGQGTTLTVSS
VL: B16 VL with L4M, C36Y, H38Q, H55Q, D70N, Y71S, S83I, Y93N, L95H
B18: C4 (antibody, human IgG1, kappa, V domains shown)
VH: EVQLQQSGPELVKPGASVKISCKASGYTFTDYFMNWVKQSHGKSLEWIGDIIPNNDSPNYNQKFKGKATLTVDKSSNTAYMELRSLTSEDSAVYYCASGYFDVWGTGTTVTVSS
VL: B4 VL with T15A, R24K, Y38F, A57T, I91V, A97D, T99S, S100Y, Y102W, R109K
B19: C6 (antibody, human IgG1, kappa, V domains shown)
VH: B16 VH with Q5H, L18V, D31A, L34I, E56D, F59Y, K67R, T97A, G101E
VL: B16 VL with L4M, C36Y, G43S, H55Q, P56A, Y93N
B20: C7 (antibody, human IgG1, kappa, V domains shown)
VH: EVQLQQSGPELVKPGASVKISCKASGYTLTDYYMNWVKQSHGKSLEWIGDINPNNGGTNFNQKFKGKATLTIDKSSSTTYMELRSLTSEDSAVYYCASLFFDYWGQGTTLTVSS
VL: B4 VL with T15A, R24K, I91L, T99S, R109K
B21: C8 (antibody, human IgG1, kappa, V domains shown)
VH: EVQLVASGGGLVKPGGSLKLSCAASGFTFSDYYMFWVRQTPEKRLEWVATISDGGGYIYYPDSVKGRFTISRDNDRNSLYLQMSSLKSEDTAIYYCGREDFWGQGTSVTVSS
VL: DIQMTQSPSSLSASLGERVSLTCRASQDIGRSLNWLQQEPDGSVRRLIYATSRLDSGVPKRFSGSRSGSDYSLTISSLESEDFVDYYCLQYASFPYTFGGGTKLEIKR
B22: C9 (antibody, human IgG1, kappa, V domains shown)
VH: EVQLQQSGAELVKPGASVKLSCTASGFNIKDIYMHWLKQRPEQGLEWIGRIDPTNGNSEYDPRFRGKATLTADTSSNIAYLQLSSLTSEDTAVYYCARFGIYPYFDYWGQGTTLTVSS
VL: GIVMTQTPKFLLVSAGDRVTITCKASQSVNKAVVWYQQKPGQSPKLLISYASNRYTGVPDRFTGSGYGTDFTFSISTVQAEDLAVYFCQQDYSSPWTFGGGTKLEIKR

Each binder was assayed against human CD112R antigen protein huCD112R-His (Acro Biosysterm, PVG-H52H4) (human) (UniProt Q6DKI7) (assay: ELISA, huCD112R-His coated on plate).

binding, binds:
B1
B2
B3
B4
B5
B6
B7
B8
B9
B10
B11
B12
B13
B14
B15
B16
B17
B18
B19
B20
B21
B22

These binders were tested against monkey antigen protein (monkey CD112R, Uniprot ID: A0A2K5WVV8) (monkey) (assay: ELISA, monkey antigen protein).

binding, binds:
B1
B2
B3
B4
B5
B6
B7
B8
B9
B10
B11
B12
B13
B14
B15
B16
B17
B18
B19
B20
B21
B22
